Consider 42 sequences from publication PMC7819943, “Rice protein-binding microarrays: a tool to detect cis-acting elements near promoter regions in rice”.

Sequences of proteins named here, by UniProt entry; tags and fusion partners are left off.
UniProt Q0JBA9, entry or part of it: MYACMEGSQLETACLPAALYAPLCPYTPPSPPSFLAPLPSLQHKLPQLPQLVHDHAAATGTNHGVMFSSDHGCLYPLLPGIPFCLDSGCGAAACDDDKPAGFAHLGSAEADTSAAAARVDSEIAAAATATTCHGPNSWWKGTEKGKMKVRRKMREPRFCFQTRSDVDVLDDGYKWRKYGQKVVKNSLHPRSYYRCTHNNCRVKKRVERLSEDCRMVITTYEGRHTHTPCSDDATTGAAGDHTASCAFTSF

Some of the results follow.

The target of this experiment is OsWRKY34 (Oryza sativa, UniProt Q0JBA9 1-250). Put plainly: protein-binding microarray (RPBM); PBS, 2% BSA, 51.3 ng/ul salmon testes DNA, 50 uM zinc acetate, 200 nM TF, 25 C, 1 h; high values mean tight binding. As to conditions: protein: recombinant; tags: N-terminal polyhistidine and DsRed monomer fusion (pET32a); label: CyDye5-dUTP incorporated in the synthesized complementary strand; 3' TTTTT single-stranded linker to array surface; dsDNA, one strand shown. The method, boiled down:
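Polyhistidine-tagged DsRed fusions of transcription factors, joined at the N-terminus, were expressed in E. coli BL21-CodonPlus and isolated on Ni–NTA. They were incubated at 200 nM for 1 h at 25 °C on a custom Agilent array, double-stranded and BSA-blocked, in PBS with 2% BSA, salmon testes DNA and 50 µM zinc acetate. The binding signal is per-feature fluorescence intensity (arbitrary units) read on an Axon 4000B scanner after washing.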
For the sequence “CTCGTCTCTCTCCTATCCGTCTCCTACAGTCGTCGTCCTCCGGAGTCACCTAGTGCAG”, the binding signal was 10800 fluorescence intensity (a.u.).

Regarding “TGGCTCCTCCATGACTCCATCCACGAGTGCAGCCTCTGCCCGGAGTCACCTAGTGCAG”, the binding signal is 8130 fluorescence intensity (a.u.).

As for “TTTATTTTCTTGTGACTTGATTTATCATCAAATGTTCTTTCGGAGTCACCTAGTGCAG”, the binding signal is 9610 fluorescence intensity (a.u.).

“TCACTCCATCCATCTAACCAAACATCCTATCACAAAATTTCGGAGTCACCTAGTGCAG”: the binding signal is 8990 fluorescence intensity (a.u.).

In the case of “TTGGGTGGATTAGAGTTTAAATCCTTTCAATTTCATGTTTCGGAGTCACCTAGTGCAG”, the binding signal is 9320 fluorescence intensity (a.u.).

Consider “GAACTAAACCGCGGGCCTTACTTCTGTTCGTACTAGTATGCGGAGTCACCTAGTGCAG”, for which the binding signal was 9420 fluorescence intensity (a.u.).

As for “GCCTTTGTCGGTCATGTTCCCATCGCTTTAGTTCTTCTCACGGAGTCACCTAGTGCAG”, the binding signal is 15000 fluorescence intensity (a.u.).

On to “CAACCCAACTCGGTCGTCGTCGTCGTCTTCCTCTCGAATCCGGAGTCACCTAGTGCAG”, for which the binding signal was 9900 fluorescence intensity (a.u.).

With “TTGTGATCCTAGCCTGCAACATATGTAGTATTCCTATCCTCGGAGTCACCTAGTGCAG”, the binding signal is 8940 fluorescence intensity (a.u.).

On to “CACTTCTCTCTCTCTCTCTCTCTCGTCTCGCAACAATTTTCGGAGTCACCTAGTGCAG”, for which the binding signal was 11200 fluorescence intensity (a.u.).

As for “ATGTGCTCGTGTTTTACTTTTACAATCTTCATTCCAAAATCGGAGTCACCTAGTGCAG”, the binding signal was 10300 fluorescence intensity (a.u.).

For the sequence “GACGCGAACCGCCTCATTCTTCAATGCCCCAACCACATTTCGGAGTCACCTAGTGCAG”, the binding signal was 8240 fluorescence intensity (a.u.).

For the sequence “CTTCAGTCTATTCTTCTTCTTTTCTTCCTTATCACAAAAACGGAGTCACCTAGTGCAG”, the binding signal was 8920 fluorescence intensity (a.u.).

For the sequence “GATTTTTTCCGGCGGTAGGCGCCGCTCTATGTTGTTCGTCCGGAGTCACCTAGTGCAG”, the binding signal is 8480 fluorescence intensity (a.u.).

Turning to “TGGGATCGAATAGCATTGGTTTATATTTTAGTGAGATCATCGGAGTCACCTAGTGCAG”, the binding signal is 10300 fluorescence intensity (a.u.).

For the sequence “TTGGTGGGTGGCGCGGTGGCCGGACCTGGGGTGGTGGGCGCGGAGTCACCTAGTGCAG”, the binding signal is 15900 fluorescence intensity (a.u.).

Take “TAGCGTCTGTTTCAGCCGTTTGATTGTCTTGATTCTATAACGGAGTCACCTAGTGCAG”: the binding signal was 8560 fluorescence intensity (a.u.).

On to “CGTCGCTGCTGCCGCGCGCCTCCGCTCCATTCCTGATTCCCGGAGTCACCTAGTGCAG”, for which the binding signal is 9200 fluorescence intensity (a.u.).

For the sequence “GCGTTTTCGGCGGGGAACGCGGGGAGGCGGGTGGGGTTGACGGAGTCACCTAGTGCAG”, the binding signal is 21800 fluorescence intensity (a.u.).

Consider “AACGGTTCATTTTTATTTTTGTTATTTTTTCTCAAAAAATCGGAGTCACCTAGTGCAG”, for which the binding signal was 8380 fluorescence intensity (a.u.).

For the sequence “TTTTTGTCTTGTTTAAGGGCGGGCGCAAGAGGGGCCGGGTCGGAGTCACCTAGTGCAG”, the binding signal was 9980 fluorescence intensity (a.u.).

In the case of “TCTCTCTCTCGATCGAATCTCTTTCGAATTTTCCAAAACCCGGAGTCACCTAGTGCAG”, the binding signal is 8560 fluorescence intensity (a.u.).

For the sequence “TATTATTGGTCAAAAATAATATCTCGTTGACCGTGTCAAACGGAGTCACCTAGTGCAG”, the binding signal was 10300 fluorescence intensity (a.u.).

On to “ATGTTGGATTGTGGGTGGAGTTAGAAAAAATCATCCCTGACGGAGTCACCTAGTGCAG”, for which the binding signal is 8390 fluorescence intensity (a.u.).

Take “ACACTCGCTTTCTGAACCTTACAGAAATTTCGCTGGCCATCGGAGTCACCTAGTGCAG”: the binding signal is 8230 fluorescence intensity (a.u.).

Consider “GGGTTGCATTTTCCCCAAACTTCCGTGGGACTTCCTTCAACGGAGTCACCTAGTGCAG”, for which the binding signal was 8290 fluorescence intensity (a.u.).

“CCTCTCTCTGTTGCGACCATTGTCTCCTCTCCTATCCCAACGGAGTCACCTAGTGCAG”: the binding signal was 10500 fluorescence intensity (a.u.).

In the case of “CCCGCCGCCGCTCTGCTCCACTTCACCTGCCGCCGCGCGCCGGAGTCACCTAGTGCAG”, the binding signal is 9330 fluorescence intensity (a.u.).

As for “TGCTCCTTTTCTTTTGTTTCTCTGATTGCTGTTAGTTGTTCGGAGTCACCTAGTGCAG”, the binding signal was 10900 fluorescence intensity (a.u.).

For “GAGGTTTTTAATCGAAGTTTATTTTCCAGTCGTCGTTTTTCGGAGTCACCTAGTGCAG”, the binding signal was 9230 fluorescence intensity (a.u.).

As to “CTTTAGCGGATTTTTTTGGGGTGATTTGCGGTGACCTCCGCGGAGTCACCTAGTGCAG”, the binding signal was 10600 fluorescence intensity (a.u.).

Turning to “GTACGCGCGCGAGCCGCCGTTCGCAACACTGCAGCTTCCACGGAGTCACCTAGTGCAG”, the binding signal was 8160 fluorescence intensity (a.u.).

Take “GATGGCCTTGACCATGCAGAAACAGGCATGGTTTCCTTCGCGGAGTCACCTAGTGCAG”: the binding signal was 64500 fluorescence intensity (a.u.).

For “ACCTACACGGCGTGCGCAATAACTGACATTTTTCTATTATCGGAGTCACCTAGTGCAG”, the binding signal is 8270 fluorescence intensity (a.u.).

“GAGGAAAATAACTATGGCTGTGTTCTAACTTGGGGTTGGGCGGAGTCACCTAGTGCAG”: the binding signal is 8220 fluorescence intensity (a.u.).

Turning to “CCTTTTTTTCCGAACCCGACCGGGTCTCTACCAACCGTTCCGGAGTCACCTAGTGCAG”, the binding signal was 9210 fluorescence intensity (a.u.).

On to “ATATCTGCTTCTACGTCGTCTACGAAGCCGCCGAGACGTCCGGAGTCACCTAGTGCAG”, for which the binding signal was 9320 fluorescence intensity (a.u.).

As for “CTCTCCTCCTCCGTTCCTGACTCCACCACTCACATTCATTCGGAGTCACCTAGTGCAG”, the binding signal was 13200 fluorescence intensity (a.u.).

As for “ACTGCCTTACCTGTTCATCTTCCAAACTGATTTGGTTTGTCGGAGTCACCTAGTGCAG”, the binding signal was 9370 fluorescence intensity (a.u.).

For the sequence “GGGTGTGTTTGGTTTGCTACCATGTCAAAATATTGGTATTCGGAGTCACCTAGTGCAG”, the binding signal is 9570 fluorescence intensity (a.u.).

Take “ATATGTTAACACGGAAGCCTATTTTGTCTTTTTTTACGGTCGGAGTCACCTAGTGCAG”: the binding signal was 9740 fluorescence intensity (a.u.).

For the sequence “TCGCAACGGTCTCAACACTTTTCTCGCTTCCCGCCATTTTCGGAGTCACCTAGTGCAG”, the binding signal is 13300 fluorescence intensity (a.u.).
